Our source for the binding values is article PMC10834496.

The chains behind the UniProt entries cited, without tags or fusion partners. Where a name states a change or a piece, a line headed by the entry shows the natural chain unless it says otherwise. Residues count along the entry.
UniProt Q9ERC8: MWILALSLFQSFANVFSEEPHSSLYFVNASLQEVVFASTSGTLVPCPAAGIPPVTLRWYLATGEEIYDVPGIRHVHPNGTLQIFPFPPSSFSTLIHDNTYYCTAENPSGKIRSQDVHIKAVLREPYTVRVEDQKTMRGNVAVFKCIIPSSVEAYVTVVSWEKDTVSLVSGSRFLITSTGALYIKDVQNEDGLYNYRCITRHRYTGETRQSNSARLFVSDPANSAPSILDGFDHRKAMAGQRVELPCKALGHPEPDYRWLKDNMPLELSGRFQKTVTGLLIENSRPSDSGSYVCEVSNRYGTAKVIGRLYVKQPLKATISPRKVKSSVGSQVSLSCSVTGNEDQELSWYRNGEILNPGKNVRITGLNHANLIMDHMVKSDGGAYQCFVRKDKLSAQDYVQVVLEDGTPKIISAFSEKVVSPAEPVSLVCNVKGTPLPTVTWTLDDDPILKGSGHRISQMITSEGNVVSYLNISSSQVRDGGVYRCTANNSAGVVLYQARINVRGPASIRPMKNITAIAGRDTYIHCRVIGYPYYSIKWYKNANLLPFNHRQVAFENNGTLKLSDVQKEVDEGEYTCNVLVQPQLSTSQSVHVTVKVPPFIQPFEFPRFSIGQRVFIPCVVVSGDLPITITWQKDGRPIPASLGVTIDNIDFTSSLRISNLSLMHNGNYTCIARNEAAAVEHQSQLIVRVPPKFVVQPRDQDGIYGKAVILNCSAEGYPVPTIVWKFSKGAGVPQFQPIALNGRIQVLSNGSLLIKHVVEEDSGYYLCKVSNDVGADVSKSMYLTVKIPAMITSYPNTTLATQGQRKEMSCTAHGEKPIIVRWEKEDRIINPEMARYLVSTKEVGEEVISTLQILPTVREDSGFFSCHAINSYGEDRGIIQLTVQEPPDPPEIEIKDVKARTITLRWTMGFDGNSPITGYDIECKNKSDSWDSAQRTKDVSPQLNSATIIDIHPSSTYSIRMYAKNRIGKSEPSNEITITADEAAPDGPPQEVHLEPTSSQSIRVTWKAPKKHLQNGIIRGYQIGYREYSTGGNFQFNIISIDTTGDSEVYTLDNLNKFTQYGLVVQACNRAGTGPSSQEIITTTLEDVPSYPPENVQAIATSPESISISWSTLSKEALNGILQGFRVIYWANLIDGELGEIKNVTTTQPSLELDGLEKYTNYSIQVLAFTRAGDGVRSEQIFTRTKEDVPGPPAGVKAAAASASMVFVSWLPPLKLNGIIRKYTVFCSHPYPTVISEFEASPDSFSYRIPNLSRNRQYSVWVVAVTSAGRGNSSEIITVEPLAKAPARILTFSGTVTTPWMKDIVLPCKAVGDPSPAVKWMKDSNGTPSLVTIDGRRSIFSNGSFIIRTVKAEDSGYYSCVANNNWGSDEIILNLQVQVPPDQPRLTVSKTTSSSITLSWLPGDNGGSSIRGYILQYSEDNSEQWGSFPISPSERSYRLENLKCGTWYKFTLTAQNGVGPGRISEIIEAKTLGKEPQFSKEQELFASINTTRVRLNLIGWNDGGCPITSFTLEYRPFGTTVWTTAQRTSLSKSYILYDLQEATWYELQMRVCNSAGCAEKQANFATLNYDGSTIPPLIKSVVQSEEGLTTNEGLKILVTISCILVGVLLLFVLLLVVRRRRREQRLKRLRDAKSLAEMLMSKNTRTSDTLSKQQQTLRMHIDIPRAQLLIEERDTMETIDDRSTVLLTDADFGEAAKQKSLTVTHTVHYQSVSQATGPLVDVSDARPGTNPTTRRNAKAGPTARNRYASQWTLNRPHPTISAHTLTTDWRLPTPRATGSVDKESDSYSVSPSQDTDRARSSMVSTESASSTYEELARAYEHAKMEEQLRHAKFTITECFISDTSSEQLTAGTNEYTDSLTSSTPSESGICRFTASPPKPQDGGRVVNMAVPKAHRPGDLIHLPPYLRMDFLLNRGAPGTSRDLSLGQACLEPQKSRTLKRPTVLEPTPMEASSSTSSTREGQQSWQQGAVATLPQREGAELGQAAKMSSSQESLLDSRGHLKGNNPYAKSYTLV
Down syndrome cell adhesion molecule (DSCAM), endogenous (mouse (endogenous in cerebellum)): residues 18-2013 of Q9ERC8

Results are given in words; binding and its absence hold for the method and conditions named. In cells and extracts the contact can be indirect. Some results given as binding are weak or reduced against the parent protein; the word gives no strength. For some assays here: Tags and fused reporters may be left off the sequences shown.

For test [1], the target named is T1, full-length GLAST fused with FLAG at the C-terminus (GLAST-FLAG) (mouse) (UniProt P56564).
T1 sequence: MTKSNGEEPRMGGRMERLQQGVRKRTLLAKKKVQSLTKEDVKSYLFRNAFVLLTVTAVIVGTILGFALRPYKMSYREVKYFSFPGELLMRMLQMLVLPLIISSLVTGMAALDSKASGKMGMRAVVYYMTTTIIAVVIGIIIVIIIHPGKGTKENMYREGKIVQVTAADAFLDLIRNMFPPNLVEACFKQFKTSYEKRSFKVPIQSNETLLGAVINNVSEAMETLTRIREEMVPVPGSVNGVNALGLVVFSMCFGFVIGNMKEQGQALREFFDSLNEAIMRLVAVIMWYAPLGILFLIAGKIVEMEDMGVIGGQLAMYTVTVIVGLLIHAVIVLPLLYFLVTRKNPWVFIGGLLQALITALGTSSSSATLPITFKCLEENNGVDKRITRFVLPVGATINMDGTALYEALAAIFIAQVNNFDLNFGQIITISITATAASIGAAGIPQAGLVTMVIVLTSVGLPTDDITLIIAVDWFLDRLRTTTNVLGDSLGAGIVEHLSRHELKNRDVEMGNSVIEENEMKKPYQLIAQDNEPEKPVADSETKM
Description: co-IP; lysates of COS-7 cells co-expressing Dscam-mEGFP constructs and GLAST-FLAG (20 mM Tris, 150 mM NaCl, 1 mM EDTA, 0.1% NP-40, pH 7.4, 4 °C); IP with anti-FLAG, protein A Sepharose; blots with anti-GFP and anti-Flag.

Test [2] deals with T2, glutamate-aspartate transporter (GLAST), endogenous (mouse (endogenous in cerebellum and brain)) (UniProt P56564).
T2 sequence: T1 sequence
Description: co-IP; rough synaptosomal fraction of P21 mouse cerebellum in ULTRARIPA Lipid Raft B-buffer; IP with rabbit anti-DSCAM or anti-EAAT1 (GLAST) or control rabbit IgG, protein G Sepharose, 4 °C; western blot.

Test [3] deals with endogenous DSCAM tagged with three consecutive ALFA tags (DSCAM-ALFA) (mouse (endogenous in brain of Dscam^ALFA/ALFA mice)) (UniProt Q9ERC8). Description: co-IP; whole-brain lysate of P10-P11 Dscam^ALFA/ALFA or Dscam^+/+ mice in ULTRARIPA Lipid Raft B-buffer; IP with anti-ALFA, anti-GLAST or control rabbit IgG, Dynabeads Protein G, 4 °C; western blot.
The target of test [4] is Down syndrome cell adhesion molecule (DSCAM), endogenous (mouse (endogenous in cerebellum)) (UniProt Q9ERC8). Briefly: co-IP; rough synaptosomal fraction of P21 mouse cerebellum in ULTRARIPA Lipid Raft B-buffer; IP with rabbit anti-DSCAM or anti-EAAT1 (GLAST) or control rabbit IgG, protein G Sepharose, 4 °C; western blot.

Regarding “DSCAM deletion construct lacking the intercellular domain, fused with mEGFP (ΔC-mEGFP) (from UniProt Q9ERC8 18-1615) (domain or fragment)”, the binding entry in test [1] is “binds”. For the molecule “Down syndrome cell adhesion molecule (DSCAM), endogenous (from UniProt Q9ERC8 18-2013)”, the binding entry in test [2] is “binds”. Take “full-length DSCAM fused with mEGFP (Full-mEGFP) (from UniProt Q9ERC8 18-2013)”: the binding entry in test [1] is listed as “binds”.

B1: glutamate-aspartate transporter (GLAST), endogenous (protein, UniProt P56564 1-543)
chain: T1 sequence
Regarding B1, the binding entry in test [3] and in test [4] was “binds” each time.
